# Primary screen of a compound library

From ChEMBL document CHEMBL3988442, “University of Dundee, Small-Polar-MMV Screening Library” (2021).

The filed quantity is “Percent Effect” (%). How 0% and 100% were set is not recorded. Most values in the screen are low, and negative values occur. The compounds are a random part of those screened. A dash means the value is not listed here; it may have been measured.

A: 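Whole-cell assay for inhibitors of Mycobacterium tuberculosis growth, labelled Cornell in the record; the read-out is not stated. The concentration is filed as 10 mM, unlikely as a test dose, so the dose is not known. The record gives no direction; compounds strong in two other growth screens of this library score well above the rest, so higher reads as stronger inhibition. Size under these conditions: about 53,000 compounds, about 900 of them at 50% or above in at least one test.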
B: 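Assay on Mycobacterium tuberculosis, filed only as a heat shock assay from Cornell; the read-out is not stated. The concentration is filed as 10 mM, unlikely as a test dose, so the dose is not known. Higher reads as stronger inhibition (inferred: compounds with an IC50 in retests scored well above the rest). Of about 69,000 compounds tested this way, about 930 (1.4%) reached 50% or more in at least one test.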

compound,A,B
Cl.NC(=O)COc1ccc(CNCc2cc(F)cc(F)c2)cc1,11.24,-21.98
CC(C)NCc1cccnc1N1CCN(c2ccccn2)CC1,-,-10.06
COCCOc1ncccc1NCc1nc2ccccc2n1C,-11.63,-0.6326
CCn1cnnc1CN(C)Cc1nc(-c2cc(OC)ccc2F)oc1C,28.42,-9.078
COCC(=O)NC1(c2cccc(C(F)(F)F)c2)CCC1,15.57,16.73
O=C(Nc1nnc[nH]1)C(c1cccc(F)c1)N1CCOCC1 (stereo unspecified),-1.879,9.515
Oc1cccc(CNCc2ccc(-n3cncn3)nc2)c1,-,-4.863
CCc1cnc(C)nc1N1CCN(C(N)=O)CC1,26.99,13.83
CCc1nn(-c2cc(Oc3cc(C)ccc3C)nc(C)n2)c(N)c1C#N,-16.92,-11.9
O=c1[nH]c2c(c(=O)n1C1CCCCC1)CCC2Nc1ccccc1Cl (stereo unspecified),-,4.086
Cc1cc2nc(SCC(=O)N3CCOCC3)n(C(C)C)c(=O)c2[nH]1,14.14,-9.82
Cc1noc(C)c1CN1CC2(CCN(C(=O)c3cccn3C)C2)CC1=O (stereo unspecified),-6.713,-25.82
O=C(c1[nH]nc(C2CC2)c1Cl)N1CCN(C2CC2)CC1,19.11,-7.287
COc1cccc(C2CCCN2Cc2nc3c(cnn3C)c(=O)[nH]2)c1 (stereo unspecified),-22.34,46.47
Cc1ccc(C(C(=O)NCc2n[nH]c(N)n2)N(C)C)cc1 (stereo unspecified),14.59,-11.43
O=C(C1CCC2(CCN(CC3CCOCC3)CC2)O1)N1CCCC1.O=C(O)C(F)(F)F (stereo unspecified),-,-17.17
CC(=O)N1CCN(Cc2c(C)ccc3ccccc23)CC(O)C1 (stereo unspecified),30.57,-12.1
Cc1noc(C(C)N2CCN(Cc3cccc(C#N)c3)CC2)n1 (stereo unspecified),-0.2425,16.31
COc1ccc(C(=O)N(CCO)Cc2ccccc2)c(OC)n1,-24.25,12.05
NS(=O)(=O)N1CCC(CSc2ccccc2)C1 (stereo unspecified),-1.207,17.15
O=C(O)C(F)(F)F.[H][C@]12CCN(C(=O)NCc3ccccc3)C[C@@]1([H])OCCN(C)C2,-13.81,8.042
CN(CCC(F)(F)F)C(=O)C1CSCN1C(=O)C(C)(C)C (stereo unspecified),-36.69,-32.93
[H][C@@]12CN(C(=O)c3ccco3)C[C@]1([H])C(=O)N(Cc1cccc(F)c1)C2,-0.05884,-22.73
COCCN(C)Cc1cn(C)nc1-c1ccc2c(c1)OCCO2,-52.38,-31.25
O=C(O)C(F)(F)F.[H][C@@]12COC[C@]1(COCC(=O)N(C)C)CN(Cc1sccc1C)C2,-,-23.94
CC(C)NC(=O)N1CC(=O)c2sc(Nc3ccc(C#N)cc3)nc2C1,-5.652,-2.97
O=C(c1ccc2c(c1)OCCCO2)N1CCCC(n2ccnc2)C1 (stereo unspecified),11.54,-0.009203
Cc1ccc(N2CCC(c3[nH]ncc3Cc3ccccc3)CC2)nn1,30.57,102.6
CSCc1noc(CN2CCCCC2CCc2ccc(O)cc2)n1 (stereo unspecified),-,-5.139
O=C(NCCc1ccsc1)Nc1cccnc1N1CCCC1,11.57,3.322
CC(C)(CN1CCOCC1)CN1CCC(Cc2cccc(CO)c2)C1 (stereo unspecified),-0.151,-21.9
CC(C)c1nnc2n1CCN(Cc1ncc(-c3ccccc3)o1)C2,-,1.468
O=C1CO[C@H](c2ccc(NS(=O)(=O)Cc3ccccc3)cc2)[C@@H](CO)N1,-12.93,-20.01
[H][C@@]12CS(=O)(=O)C[C@]1([H])N(C(=O)c1cnc(C)cn1)CCN2C(=O)CC(C)C,15.91,0.9173
O=C(c1nccc2ccccc12)N(Cc1ccco1)CC1CCCO1 (stereo unspecified),-27.43,1.883
NC(=O)CC1CCN(C(=O)CCOc2ccc(Cl)cc2)CC1,-,7.263
O=C(Cc1ccc2c(c1)OCCO2)N1CCCC(n2ccnc2)C1 (stereo unspecified),-,-11.37
O=C(O)C(F)(F)F.[H][C@@]12CCN(S(=O)(=O)c3cccnc3)[C@]1([H])CC[C@@H](c1nc(C)no1)O2,17.07,58.53
CCNc1ccnc(NC2CCN(C(=O)c3ccc(C)cc3)CC2)n1,2.116,-22.73
Cc1ccc(CN(CCCN2CCOCC2)Cc2cnn(C)c2)o1.O=C(O)CC(O)(CC(=O)O)C(=O)O,7.404,-9.994
CC(C)c1ncc2c(n1)CN(Cc1nc(-c3ccoc3)no1)CC2,9.984,29.93
[H][C@]12CCN(Cc3ccco3)[C@@]1([H])CC[C@H](COCc1cccc(C)n1)O2,16.26,-10.45
CN(C)C(=O)Cc1ccc(NC(=O)NC2CC2)cc1,-41.06,-4.857
[H][C@]12CCN(C(=O)NC)CC[C@@]1([H])S(=O)(=O)N(Cc1ccccc1)C2,-3.193,-2.729
O=C(O)C(F)(F)F.[H][C@@]12CCN(Cc3ccc(C)o3)[C@@]1([H])CCC(=O)N2,-6.089,-7.125
COc1c(C2CCCN2C(=O)c2c(C)noc2C(C)C)c(C)nn1C (stereo unspecified),-,1.499
CCC(OC)C(=O)N1CCC2(CC1)c1nc[nH]c1CCN2S(C)(=O)=O (stereo unspecified),-8.013,-18.72
CN1CC2(CCN(S(=O)(=O)C3CC3)CC2)c2ccccc21.O=C(O)C(F)(F)F,22.61,-1.452
CC(C(=O)Nc1ccon1)n1ccc(C(F)(F)F)n1 (stereo unspecified),-25.54,-6.051
CN(C)S(=O)(=O)c1csc(C(=O)N2CCSCC2)c1,8.354,1.581
CC(C)(CNc1ccccc1S(=O)(=O)C(F)F)N1CCOCC1,-,8.053
CC(c1ccc(F)cc1F)N1CCN(CCN2CCCC2=O)CC1 (stereo unspecified),10.81,10.92
COc1ccc(-c2cccc(-c3ccn(CC4COCCO4)n3)c2)nn1 (stereo unspecified),12.95,20.4
CCc1ncc(C(=O)NCCn2c(C)cc(C)nc2=O)cn1,17.07,0.4614
Cc1ccc(C(C)N(C)C(=O)c2ccc(=O)n(C)c2)s1 (stereo unspecified),-11.59,10.01
N#Cc1cn(C2CC2)c(=O)n(Cc2ncc(-c3cccs3)o2)c1=O,-,20.2
COCc1cn([C@@H]2c3ccccc3C3(CCNCC3)[C@H]2O)nn1,-16.41,-10.51
CC(C)S(=O)(=O)N1C[C@@H](O)[C@H](N(C)Cc2ccc(F)cc2)C1,-4.512,-2.208
O=C(C(c1ccccc1)S(=O)(=O)c1ccccn1)N1CCCCC1 (stereo unspecified),23.06,20.85
O=C1NCCCCC1Sc1ccc(F)cc1F (stereo unspecified),21.14,-0.1888
CCS(=O)(=O)CCNC(=O)c1ccc(-c2ccc(C)cc2)cc1F,-3.929,-27.67
CC1(C)Cc2ccc(C(=O)NC3CCOCC3)c(O)c2O1,-8.655,-15.88
O=C(O)C(F)(F)F.[H][C@@]12CN(Cc3ccco3)CCO[C@]1([H])CN(S(=O)(=O)CC)C2,-42.12,-8.161
CC(C)(C)c1n[nH]c(C2CN(C(=O)CCC3CC3)CCO2)n1 (stereo unspecified),21.43,-24.41
Cc1cc2[nH]c(=O)c(=O)[nH]c2cc1S(=O)(=O)NC1CCC(C)CC1 (stereo unspecified),-,-15.51
CN(C)Cc1nnc(C2CCN(c3nccc(N)n3)CC2)n1C1CC1,13.56,1.262
CC(=O)N1CCCCC12CCCN(Cc1ccco1)C2.O=C(O)C(F)(F)F (stereo unspecified),25.6,17.27
Cn1ccnc1CCNS(=O)(=O)c1ccc(Br)cc1,-,-34.78
CN(C)c1nccc(C2CN(c3cnccn3)CCO2)n1 (stereo unspecified),-32.07,-32.15
Cc1ccc(C(=O)N2CCC(Oc3ccc(C)c(C)c3)CC2)c(=O)[nH]1,-,-34.57
Cc1cc(N2CCC(C(=O)O)(n3ccc(C(C)C)n3)CC2)nc(N)n1,-2.284,-15.96
CC(C)c1nc(CCN(C)c2nccc(N3CCCC(O)C3)n2)no1 (stereo unspecified),-,-11.8
CC(C)(C)c1cc(=O)[nH]c(-c2ccccc2CN2CCC[C@@H](O)C2)n1,28.71,8.039
Cc1c(NC(=O)CN(C)S(C)(=O)=O)cccc1OC1CCCC1,-1.46,-24.86
CC(NC(=O)CCn1cccn1)c1ccc(-n2ccnn2)cc1 (stereo unspecified),-33.36,-14.31
[H][C@@]12CN(C(=O)c3ccoc3C)C[C@]1([H])C(=O)N(Cc1csc(C)n1)C2,11.17,-7.639
O=C(O)C(F)(F)F.[H][C@@]12CCN(c3cccc(F)c3)C[C@@]1([H])O[C@@H](C(=O)N1CCCC1)C2,12.3,3.846
Cc1ccc2c(c1C)OCC2NCc1cccc(C#N)c1 (stereo unspecified),-,13.09
COc1ccc(CN2CCCN(C(=O)C(C)n3ccnc3)CC2)cc1 (stereo unspecified),-,-20.03
CCN(C(=O)NCc1cccnc1N(C)C)C(C)c1cccnc1 (stereo unspecified),-42.35,2.817
Cn1c(=O)cc(C(=O)NC(Cc2ccsc2)c2cccnc2)[nH]c1=O (stereo unspecified),-13.34,6.389
CN(C(=O)Cc1coc(-c2cccs2)n1)C1(C#N)CCC1,18.74,-32.72

For reference, 7 entries once more:

{"compound": "CCc1nn(-c2cc(Oc3cc(C)ccc3C)nc(C)n2)c(N)c1C#N", "A": -16.92, "B": -11.9}
{"compound": "CC(C)c1nnc2n1CCN(Cc1ncc(-c3ccccc3)o1)C2", "B": 1.468}
{"compound": "O=C(C(c1ccccc1)S(=O)(=O)c1ccccn1)N1CCCCC1", "stereo": "stereo unspecified", "A": 23.06, "B": 20.85}
{"compound": "CC(C)S(=O)(=O)N1C[C@@H](O)[C@H](N(C)Cc2ccc(F)cc2)C1", "A": -4.512, "B": -2.208}
{"compound": "Oc1cccc(CNCc2ccc(-n3cncn3)nc2)c1", "B": -4.863}
{"compound": "CN(C)S(=O)(=O)c1csc(C(=O)N2CCSCC2)c1", "A": 8.354, "B": 1.581}
{"compound": "[H][C@@]12CN(C(=O)c3ccoc3C)C[C@]1([H])C(=O)N(Cc1csc(C)n1)C2", "A": 11.17, "B": -7.639}